Laboratory results published in the supplement of paper PMC2577665.
± gives the standard deviation of the averaged measurements. The data scatter; read single values as rough.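 In each well, ERalpha-negative HeLa cells were transfected with ERalpha, a reporter bearing two estrogen response elements, and one overexpressed, poorly characterized human cDNA. Genes reducing signal to the BRCA1 positive control level (roughly 0.6 of empty vector) or below were scored as repressor hits.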

System: ERE-luciferase reporter with exogenous ERalpha in HeLa cells
Test: relative ERE luciferase activity (Firefly/Renilla) upon cDNA overexpression, relative to empty vector (fold of empty vector); higher = stronger ERalpha transactivation (less repression)
Settings: 17beta-estradiol: 10 nM; 12 h

Going from “MFGIQDTLGRGPTLKEKSLGAEMDSVRSWVRNVGVVDANVAAQSGVALSRAHFEKQPPSNLRKSNFFHFVLALYDRQGQPVEIERTAFVDFVENDKEQGNEKTNNGTHYKLQLLYSNGVRTEQDLYVRLIDSVTKQPIAYEGQNKNPEMCRVLLTHEVMCSRCCEKKSCGNRNETPSDPVIIDRFFLKFFLKCNQNCLKTAGNPRDMRRFQVVLSTTVNVDGHVLAVSDNMFVHNNSKHGRRARRLDPSEATPCIKAISPSEGWTTGGAMVIIIGDNFFDGLQVVFGTMLVWSELITPHAIRVQTPPRHIPGVVEVTLSYKSKQFCKGAPGRFIYTALNEPTIDYGFQRLQKVIPRHPGDPERLAKEMLLKRAADLVEALYGTPHNNQDIILKRAADIAEALYSVPRNPSQLPALSSSPAHSGMMGINSYGSQLGVSISESTQGNNQGYIRNTSSISPRGYSSSSTPQQSNYSTSSNSMNGYSNVPMANLGVPGSPGFLNGSPTGSPYGIMSSSPTVGSSSTSSILPFSSSVFPAVKQKSAFAPVIRPQGSPSPACSSGNGNGFRAMTGLVVPPM [EBF2]” to “MFKVIQRSVGPASLSLLTFKVYAAPKKDSPPKNSVKVDELSLYSVPEGQSKYVEEARSQLEESISQLRHYCEPYTTWCQETYSQTKPKMQSLVQWGLDSYDYLQNAPPGFFPRLGVIGFAGLIGLLLARGSKIKKLVYPPGFMGLAASLYYPQQAIVFAQVSGERLYDWGLRGYIVIEDLWKENFQKPGNVKNSPGTK [APOO]”, the “relative ERE luciferase activity” value rises from 1.04 to 1.1.

Compared with “MFVELNNLLNTTPDRAEQGKLTLLCDAKTDGSFLVHHFLSFYLKANCKVCFVALIQSFSHYSIVGQKLGVSLTMARERGQLVFLEGLKSAVDVVFQAQKEPHPLQFLREANAGNLKPLFEFVREALKPVDSGEARWTYPVLLVDDLSVLLSLGMGAVAVLDFIHYCRATVCWELKGNMVVLVHDSGDAEDEENDILLNGLSHQSHLILRAEGLATGFCRDVHGQLRILWRRPSQPAVHRDQSFTYQYKIQDKSVSFFAKGMSPAVL [TMEM103]”, “MFWKLSLSLFLVAVLVKVAEARKNRPAGAIPSPYKDGSSNNSERWQHQIKEVLASSQEALVVTERKYLKSDWCKTQPLRQTVSEEGCRSRTILNRFCYGQCNSFYIPRHVKKEEESFQSCAFCKPQRVTSVLVELECPGLDPPFRLKKIQKVKQCRCMSVNLSDSDKQ [GREM2]” is higher in “relative ERE luciferase activity” value: 1.27 for the first, 1.95 for the second.

Compared with “MGDPNSRKKQALNRLRAQLRKKKESLADQFDFKMYIAFVFKEKKKKSALFEVSEVIPVMTNNYEENILKGVRDSSYSLESSLELLQKDVVQLHAPRYQSMRRDVIGCTQEMDFILWPRNDIEKIVCLLFSRWKESDEPFRPVQAKFEFHHGDYEKQFLHVLSRKDKTGIVVNNPNQSVFLFIDRQHLQTPKNKATIFKLCSICLYLPQEQLTHWAVGTIEDHLRPYMPE [C6orf62]”, “MGDREQLLQRARLAEQAERYDDMASAMKAVTELNEPLSNEDRNLLSVAYKNVVGARRSSWRVISSIEQKTMADGNEKKLEKVKAYREKIEKELETVCNDVLSLLDKFLIKNCNDFQYESKVFYLKMKGDYYRYLAEVASGEKKNSVVEASEAAYKEAFEISKEQMQPTHPIRLGLALNFSVFYYEIQNAPEQACLLAKQAFDDAIAELDTLNEDSYKDSTLIMQLLRDNLTLWTSDQQDEEAGEGN [YWHAH]” is higher in “relative ERE luciferase activity” value: 1.07 for the first, 1.94 for the second.

Going from “MGKRDNRVAYMNPIAMARWRGPTQSVGPTIQDYLNRPRPTWEEVKKQLENKKTGSKALAEFEEKMNENWKKELEKSREKLLSGNESSSKKRERKKKRKKKSCRSSSSSSSSDSSSSSSDSEDEEKKQGKRRKKKKNRSYKSSQSSTHESESESKESVKKKKKSKDETEKEKDVRSLSKKRKKSYPDDKPLSSESSSESDYEEDVQAKKKRRCEEREQAKEKVKKKKKKQHKKHSKKKKKKSGSSHKSR [FAM133A]” to “MGKTFSQLGSWREDENKSILSSKPAIGSKAVNYSSTGSSKSFCSCVPCEGTADASFVTCPTCQGSGKIPQELEKQLVALIPYGDQRLKPKHTKLFVFLAVLICLVTSSFIVFFLFPRSVIVQPAGLNSSTVAFDEADIYLNITNILNISNGNYYPIMVTQLTLEVLHLSLVVGQVSNNLLLHIGPLASEQMFYAVATKIRDENTYKICTWLEIKVHHVLLHIQGTLTCSYLSHSEQLVFQSYEYVDCRGNASVPHQLTPHPP [TMEM106A]”, the “relative ERE luciferase activity” value falls from 1.72 to 1.05.

First: MGNLFGRKKQSRVTEQDKAILQLKQQRDKLRQYQKRIAQQLERERALARQLLRDGRKERAKLLLKKKRYQEQLLDRTENQISSLEAMVQSIEFTQIEMKVMEGLQFGNECLNKMHQVMSIEEVERILDETQEAVEYQRQIDELLAGSFTQEDEDAILEELSAITQEQIELPEVPSEPLPEKIPENVPVKARPRQAELVAAS [CHMP6]
Second: MGNRVCCGGSWSCPSTFQKKKKTGSQTRRTLKPQPQQLQQNLPKGHETTGHTYERVLQQQGSQERSPGLMSEDSNLHYADIQVCSRPHAREVKHVHLENATEYATLRFPQATPRYDSKNGTLV [C11orf52]
The “relative ERE luciferase activity” value of the first is higher: 2.86 for the first, 0.818 for the second.

“MGNTLGLAPMGTLPRRSPRREEPLPNPGSFDELHRLCKDVFPAQMEGVKLVVNKVLSSHFQVAHTIHMSALGLPGYHLHAAYAGDWQLSPTEVFPTVVGDMDSSGSLNAQVLLLLAERLRAKAVFQTQQAKFLTWQFDGEYRGDDYTATLTLGNPDLIGESVIMVAHFLQSLTHRLVLGGELVYHRRPGEEGAILTLAGKYSAVHWVATLNVGSGGAHASYYHRANEQVQVGVEFEANTRLQDTTFSFGYHLTLPQANMVFRGLVDSNWCVGAVLEKKMPPLPVTLALGAFLNHWRNRFHCGFSITVG [TOMM40L]” and “MGPTRKPNVCSRLSRRALGCFSRDAGVVQRTNLGILRALVCQESTKFKNVWTTHSRSPIAYERGRIYFDNYRRCVSSVASEPRKLYEMPKCSKSEKIEDALLWECPVGDILPNSSDYKSSLIALTAHNWLLRISATTGKILEKIYLAPYCKFRYLSWDTPQEVIAVKSAQNRGSAVARQAGIQQHVLLYLAVFRVLPFSLVGILEINKKIFGNVTDATLSHGILIVMYSSGLVRLYSFQTIAEQFMQQKLDLGCACRWGGTTGTVGEAPFGIPCNIKITDMPPLLFEVSSLENAFQIGGHPWHYIVTPNKKKQKGVFHICALKDNSLAKNGIQEMDCCSLESDWIYFHPDASGRIIHVGPNQVKVLKLTEIENNSSQHQISEDFVILANRENHKNENVLTVTASGRVVKKSFNLLDDDPEQETFKIVDYEDELDLLSVVAVTQIDAEGKAHLDFHCNEYGTLLKSIPLVESWDVTYSHEVYFDRDLVLHIEQKPNRVFSCYVYQMICDTGEEEETINRSC [C2orf37]” are within error of each other in “relative ERE luciferase activity” value: 1.18 for the first, 1.14 ± 0.12 for the second.

First: MGSACIKVTKYFLFLFNLIFFILGAVILGFGVWILADKSSFISVLQTSSSSLRMGAYVFIGVGAVTMLMGFLGCIGAVNEVRCLLGLYFAFLLLILIAQVTAGALFYFNMGKLKQEMGGIVTELIRDYNSSREDSLQDAWDYVQAQVKCCGWVSFYNWTDNAELMNRPEVTYPCSCEVKGEEDNSLSVRKGFCEAPGNRTQSGNHPEDWPVYQEGCMEKVQAWLQENLGIILGVGVGVAIIELLGMVLSICLCRHVHSEDYSKVPKY [CD82]
Second: MGWTMRLVTAALLLGLMMVVTGDEDENSPCAHEALLDEDTLFCQGLEVFYPELGNIGCKVVPDCNNYRQKITSWMEPIVKFPGAVDGATYILVMVDPDAPSRAEPRQRFWRHWLVTDIKGADLKKGKIQGQELSAYQAPSPPAHSGFHRYQFFVYLQEGKVISLLPKENKTRGSWKMDRFLNRFHLGEPEASTQFMTQNYQDSPTLQAPRERASEPKHKNQAEIAAC [PEBP4]
The “relative ERE luciferase activity” value of the first is higher: 1.02 for the first, 0.961 for the second.

First: MHPFQWCNGCFCGLGLVSTNKSCSMPPISFQDLPLNIYMVIFGTGIFVFMLSLIFCCYFISKLRNQAQSERYGYKEVVLKGDAKKLQLYGQTCAVCLEDFKGKDELGVLPCQHAFHRKCLVKWLEVRCVCPMCNKPIASPSEATQNIGILLDELV [RNF122]
Second: MILNSLSLCYHNKLILAPMVRVGTLPMRLLALDYGADIVYCEELIDLKMIQCKRVVNEVLSTVDFVAPDDRVVFRTCEREQNRVVFQMGTSDAERALAVARLVENDVAGIDVNMGCPKQYSTKGGMGAALLSDPDKIEKILSTLVKGTRRPVTCKIRILPSLEDTLSLVKRIERTGIAAIAVHGRKREERPQHPVSCEVIKAIADTLSIPVIANGGSHDHIQQYSDIEDFRQATAASSVMVARAAMWNPSIFLKEGLRPLEEVMQKYIRYAVQYDNHYTNTKYCLCQMLREQLESPQGRLLHAAQSSREICEAFGLGAFYEETTQELDAQQARLSAKTSEQTGEPAEDTSGVIKMAVKFDRRAYPAQITPKMCLLEWCRREKLAQPVYETVQRPLDRLFSSIVTVAEQKYQSTLWDKSKKLAEQAAAIVCLRSQGLPEGRLGEESPSLHKRKREAPDQDPGGPRAQELAQPGDLCKKPFVALGSGEESPLEGW [DUS2L]
The “relative ERE luciferase activity” value of the first is higher: 1.87 for the first, 1.01 for the second.

First: MISPDPRPSPGLARWAESYEAKCERRQEIRESRRCRPNVTTCRQVGKTLRIQQREQLQRARLQQFFRRRNLELEEKGKAQHPQAREQGPSRRPGQVTVLKEPLSCARRISSPREQVTGTSSEVFPAQHPPPSGICRDLSDHLSSQAGGLPPQDTPIKKPPKHHRGTQTKAEGPTIKNDASQQTNYGVAVLDKEIIQLSDYLKEALQRELVLKQKMVILQDLLSTLIQASDSSWKGQLNEDKLKGKLRSLENQLYTCTQKYSPWGMKKVLLEMEDQKNSYEQKAKESLQKVLEEKMNAEQQLQSTQRSLALAEQKCEEWRSQYEALKEDWRTLGTQHRELESQLHVLQSKLQGADSRDLQMNQALRFLENEHQQLQAKIECLQGDRDLCSLDTQDLQDQLKRSEAEKLTLVTRVQQLQGLLQNQSLQLQEQEKLLTKKDQALPVWSPKSFPNEVEPEGTGKEKDWDLRDQLQKKTLQLQAKEKECRELHSELDNLSDEYLSCLRKLQHCREELNQSQQLPPRRQCGRWLPVLMVVIAAALAVFLANKDNLMI [TRAF3IP3]
Second: MKDRLQELKQRTKEIELSRDSHVSTTETEEQGVFLQQAVIYEREPVAERHLHEIQKLQESINNLADNVQKFGQQQKSLVASMRRFSLLKRESTITKEIKIQAEYINRSLNDLVKEVKKSEVENGPSSVVTRILKSQHAAMFRHFQQIMFIYNDTIAAKQEKCKTFILRQLEVAGKEMSEEDVNDMLHQGKWEVFNESLLTEINITKAQLSEIEQRHKELVNLENQIKDLRDLFIQISLLVEEQGESINNIEMTVNSTKEYVNNTKEKFGLAVKYKKRNPCRVLCCWCCPCCSSK [STX19]
The “relative ERE luciferase activity” value of the first is lower: 0.539 for the first, 1.17 for the second.

“MKGFIDDANYSVGLLDEGTNLGNVIDNYVYEHTLTGKNAFFVGDLGKIVKKHSQWQNVVAQIKPFYTVKCNSAPAVLEILAALGTGFACSSKNEMALVQELGVPPENIIYISPCKQVSQIKYAAKVGVNILTCDNEIELKKIARNHPNAKVLLHIATEDNIGGEEGNMKFGTTLKNCRHLLECAKELDVQIIGVKFHVSSACKESQVYVHALSDARCVFDMAGEIGFTMNMLDIGGGFTGTEFQLEEVNHVISPLLDIYFPEGSGVKIISEPGSYYVSSAFTLAVNIIAKKVVENDKFPSGVEKTGSDEPAFMYYMNDGVYGSFASKLSEDLNTIPEVHKKYKEDEPLFTSSLWGPSCDELDQIVESCLLPELNVGDWLIFDNMGADSFHEPSAFNDFQRPAIYYMMSFSDWYEMQDAGITSDSMMKNFFFVPSCIQLSQEDSFSAEA [AZIN1]” was tested, and the “relative ERE luciferase activity” value was 1.12.
